In the supplement of paper PMC10849652:
The other results are listed elsewhere or left out.

Sequences of proteins named here, by UniProt entry; tags and fusion partners are left off. A change or cut given only in a name is not applied to a line headed by its entry.
UniProt P51572: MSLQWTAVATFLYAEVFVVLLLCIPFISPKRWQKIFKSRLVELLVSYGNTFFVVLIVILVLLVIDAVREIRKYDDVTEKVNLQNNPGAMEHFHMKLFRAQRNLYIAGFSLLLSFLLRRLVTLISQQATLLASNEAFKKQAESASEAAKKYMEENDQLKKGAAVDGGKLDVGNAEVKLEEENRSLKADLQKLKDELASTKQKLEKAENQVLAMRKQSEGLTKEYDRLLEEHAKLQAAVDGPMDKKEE
UniProt O95861: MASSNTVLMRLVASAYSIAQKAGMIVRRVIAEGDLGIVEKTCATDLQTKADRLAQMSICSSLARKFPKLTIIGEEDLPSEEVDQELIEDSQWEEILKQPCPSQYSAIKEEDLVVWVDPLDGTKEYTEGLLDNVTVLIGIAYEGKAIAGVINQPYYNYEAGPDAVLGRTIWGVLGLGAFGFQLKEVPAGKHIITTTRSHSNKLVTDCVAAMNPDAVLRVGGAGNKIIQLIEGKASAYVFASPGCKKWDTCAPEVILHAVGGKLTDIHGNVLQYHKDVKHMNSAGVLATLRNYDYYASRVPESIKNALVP
UniProt Q8N9N5: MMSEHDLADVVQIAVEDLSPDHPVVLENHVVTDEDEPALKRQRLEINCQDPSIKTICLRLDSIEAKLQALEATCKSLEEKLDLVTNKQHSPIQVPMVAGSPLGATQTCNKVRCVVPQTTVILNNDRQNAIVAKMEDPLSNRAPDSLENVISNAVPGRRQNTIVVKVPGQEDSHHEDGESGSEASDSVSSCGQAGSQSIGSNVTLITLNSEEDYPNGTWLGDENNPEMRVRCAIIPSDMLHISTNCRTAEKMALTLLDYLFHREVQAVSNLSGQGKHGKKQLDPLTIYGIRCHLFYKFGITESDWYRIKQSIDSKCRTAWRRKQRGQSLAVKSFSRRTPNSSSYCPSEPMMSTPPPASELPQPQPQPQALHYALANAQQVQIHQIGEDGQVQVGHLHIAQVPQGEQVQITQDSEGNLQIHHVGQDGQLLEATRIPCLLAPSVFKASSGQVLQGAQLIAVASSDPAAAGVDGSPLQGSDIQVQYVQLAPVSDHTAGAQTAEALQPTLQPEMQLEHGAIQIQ
UniProt Q9BQE9, whole entry, looked up: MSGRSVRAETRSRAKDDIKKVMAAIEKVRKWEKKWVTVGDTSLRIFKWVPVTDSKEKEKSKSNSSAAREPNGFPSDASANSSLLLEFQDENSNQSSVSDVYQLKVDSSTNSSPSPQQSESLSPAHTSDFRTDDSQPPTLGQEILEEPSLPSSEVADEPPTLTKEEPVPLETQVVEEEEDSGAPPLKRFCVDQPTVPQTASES
UniProt O95429: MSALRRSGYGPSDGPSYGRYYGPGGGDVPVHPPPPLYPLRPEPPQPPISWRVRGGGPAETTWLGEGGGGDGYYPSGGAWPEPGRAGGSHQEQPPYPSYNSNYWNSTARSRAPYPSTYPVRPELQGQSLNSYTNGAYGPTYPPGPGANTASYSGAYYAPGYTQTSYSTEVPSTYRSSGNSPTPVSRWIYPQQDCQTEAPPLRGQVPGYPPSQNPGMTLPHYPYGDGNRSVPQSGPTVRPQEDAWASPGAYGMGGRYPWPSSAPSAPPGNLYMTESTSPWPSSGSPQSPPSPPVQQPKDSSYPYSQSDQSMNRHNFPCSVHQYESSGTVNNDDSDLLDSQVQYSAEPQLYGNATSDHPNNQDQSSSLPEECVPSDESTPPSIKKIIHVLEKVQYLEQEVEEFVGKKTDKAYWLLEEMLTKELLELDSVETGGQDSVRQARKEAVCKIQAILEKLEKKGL
UniProt O15382: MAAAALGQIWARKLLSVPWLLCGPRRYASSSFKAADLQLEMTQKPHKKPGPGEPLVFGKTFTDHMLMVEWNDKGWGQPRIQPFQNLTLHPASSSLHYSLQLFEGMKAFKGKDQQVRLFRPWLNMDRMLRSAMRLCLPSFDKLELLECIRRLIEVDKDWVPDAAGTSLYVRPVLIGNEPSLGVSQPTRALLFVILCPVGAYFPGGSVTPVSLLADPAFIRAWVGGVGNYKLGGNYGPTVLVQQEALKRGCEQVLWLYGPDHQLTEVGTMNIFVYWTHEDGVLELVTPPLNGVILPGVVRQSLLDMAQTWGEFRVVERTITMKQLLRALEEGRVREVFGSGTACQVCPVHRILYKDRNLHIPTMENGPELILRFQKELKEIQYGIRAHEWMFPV
UniProt P30043: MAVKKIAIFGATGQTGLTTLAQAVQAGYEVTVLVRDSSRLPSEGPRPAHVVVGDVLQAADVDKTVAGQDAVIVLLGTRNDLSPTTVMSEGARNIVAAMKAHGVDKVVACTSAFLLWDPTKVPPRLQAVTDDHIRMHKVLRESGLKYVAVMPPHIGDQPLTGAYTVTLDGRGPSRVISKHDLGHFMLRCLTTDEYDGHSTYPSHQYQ
UniProt P54687: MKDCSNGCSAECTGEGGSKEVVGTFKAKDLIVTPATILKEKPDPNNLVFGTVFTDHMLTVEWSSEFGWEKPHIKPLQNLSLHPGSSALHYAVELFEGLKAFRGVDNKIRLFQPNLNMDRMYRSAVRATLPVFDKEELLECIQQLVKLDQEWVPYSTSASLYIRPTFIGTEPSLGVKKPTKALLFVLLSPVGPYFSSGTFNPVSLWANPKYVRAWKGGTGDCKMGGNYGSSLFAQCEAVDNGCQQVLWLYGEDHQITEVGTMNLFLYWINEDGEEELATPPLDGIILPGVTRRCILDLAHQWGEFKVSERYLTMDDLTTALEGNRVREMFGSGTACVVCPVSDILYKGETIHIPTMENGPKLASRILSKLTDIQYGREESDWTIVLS
UniProt Q9BXK5, whole entry, looked up: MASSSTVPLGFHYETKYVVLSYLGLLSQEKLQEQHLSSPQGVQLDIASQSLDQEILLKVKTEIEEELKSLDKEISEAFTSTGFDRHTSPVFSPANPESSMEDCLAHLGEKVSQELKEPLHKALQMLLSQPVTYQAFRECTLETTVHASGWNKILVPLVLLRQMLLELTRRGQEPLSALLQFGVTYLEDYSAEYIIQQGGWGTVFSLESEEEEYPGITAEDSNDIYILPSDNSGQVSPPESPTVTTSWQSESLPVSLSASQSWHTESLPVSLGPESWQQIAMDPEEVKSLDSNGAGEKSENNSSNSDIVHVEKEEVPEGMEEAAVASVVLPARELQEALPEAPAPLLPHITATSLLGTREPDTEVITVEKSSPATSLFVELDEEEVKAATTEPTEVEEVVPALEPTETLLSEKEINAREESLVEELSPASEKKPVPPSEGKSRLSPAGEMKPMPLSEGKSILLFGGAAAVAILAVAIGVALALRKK
UniProt Q96KE9: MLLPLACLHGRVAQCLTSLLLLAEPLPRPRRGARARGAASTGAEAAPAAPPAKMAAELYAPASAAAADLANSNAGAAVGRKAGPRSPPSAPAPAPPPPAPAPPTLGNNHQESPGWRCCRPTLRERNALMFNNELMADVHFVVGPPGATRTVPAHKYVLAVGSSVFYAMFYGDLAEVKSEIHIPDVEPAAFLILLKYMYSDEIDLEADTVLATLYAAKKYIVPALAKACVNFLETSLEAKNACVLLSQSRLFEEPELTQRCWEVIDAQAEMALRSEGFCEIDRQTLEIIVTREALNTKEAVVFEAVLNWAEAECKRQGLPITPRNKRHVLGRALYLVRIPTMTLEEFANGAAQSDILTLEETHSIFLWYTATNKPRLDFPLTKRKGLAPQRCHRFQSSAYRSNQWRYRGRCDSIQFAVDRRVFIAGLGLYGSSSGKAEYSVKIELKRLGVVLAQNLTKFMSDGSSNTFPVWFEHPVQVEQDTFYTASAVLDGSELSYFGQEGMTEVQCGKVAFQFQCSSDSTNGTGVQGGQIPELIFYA
UniProt O60512: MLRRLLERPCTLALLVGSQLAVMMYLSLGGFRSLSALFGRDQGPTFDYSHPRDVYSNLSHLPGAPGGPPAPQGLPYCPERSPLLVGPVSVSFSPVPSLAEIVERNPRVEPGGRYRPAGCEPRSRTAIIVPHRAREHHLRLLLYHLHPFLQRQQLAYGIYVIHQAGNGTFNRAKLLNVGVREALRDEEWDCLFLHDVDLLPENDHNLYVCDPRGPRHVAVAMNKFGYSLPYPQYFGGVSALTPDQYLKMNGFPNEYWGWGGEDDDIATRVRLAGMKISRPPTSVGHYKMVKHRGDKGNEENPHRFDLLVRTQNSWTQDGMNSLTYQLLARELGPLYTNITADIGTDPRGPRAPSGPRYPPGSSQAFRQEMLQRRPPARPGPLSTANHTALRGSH
UniProt Q9NWV8, whole entry, looked up: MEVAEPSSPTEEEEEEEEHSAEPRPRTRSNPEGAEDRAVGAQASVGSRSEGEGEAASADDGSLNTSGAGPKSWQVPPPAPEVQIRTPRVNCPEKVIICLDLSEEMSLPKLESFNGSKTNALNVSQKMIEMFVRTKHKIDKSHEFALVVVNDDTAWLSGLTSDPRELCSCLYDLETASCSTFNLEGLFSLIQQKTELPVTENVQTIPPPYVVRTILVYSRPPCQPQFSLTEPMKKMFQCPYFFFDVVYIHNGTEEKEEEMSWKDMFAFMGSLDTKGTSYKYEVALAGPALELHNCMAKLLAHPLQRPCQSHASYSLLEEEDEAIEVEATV
UniProt Q4VC05, whole entry, looked up: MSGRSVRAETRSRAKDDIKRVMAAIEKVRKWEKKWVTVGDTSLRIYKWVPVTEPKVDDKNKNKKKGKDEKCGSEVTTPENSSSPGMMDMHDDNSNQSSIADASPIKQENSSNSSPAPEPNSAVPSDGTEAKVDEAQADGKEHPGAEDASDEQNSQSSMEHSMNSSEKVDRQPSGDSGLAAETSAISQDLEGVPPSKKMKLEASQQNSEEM
UniProt Q9NSY1, whole entry, looked up: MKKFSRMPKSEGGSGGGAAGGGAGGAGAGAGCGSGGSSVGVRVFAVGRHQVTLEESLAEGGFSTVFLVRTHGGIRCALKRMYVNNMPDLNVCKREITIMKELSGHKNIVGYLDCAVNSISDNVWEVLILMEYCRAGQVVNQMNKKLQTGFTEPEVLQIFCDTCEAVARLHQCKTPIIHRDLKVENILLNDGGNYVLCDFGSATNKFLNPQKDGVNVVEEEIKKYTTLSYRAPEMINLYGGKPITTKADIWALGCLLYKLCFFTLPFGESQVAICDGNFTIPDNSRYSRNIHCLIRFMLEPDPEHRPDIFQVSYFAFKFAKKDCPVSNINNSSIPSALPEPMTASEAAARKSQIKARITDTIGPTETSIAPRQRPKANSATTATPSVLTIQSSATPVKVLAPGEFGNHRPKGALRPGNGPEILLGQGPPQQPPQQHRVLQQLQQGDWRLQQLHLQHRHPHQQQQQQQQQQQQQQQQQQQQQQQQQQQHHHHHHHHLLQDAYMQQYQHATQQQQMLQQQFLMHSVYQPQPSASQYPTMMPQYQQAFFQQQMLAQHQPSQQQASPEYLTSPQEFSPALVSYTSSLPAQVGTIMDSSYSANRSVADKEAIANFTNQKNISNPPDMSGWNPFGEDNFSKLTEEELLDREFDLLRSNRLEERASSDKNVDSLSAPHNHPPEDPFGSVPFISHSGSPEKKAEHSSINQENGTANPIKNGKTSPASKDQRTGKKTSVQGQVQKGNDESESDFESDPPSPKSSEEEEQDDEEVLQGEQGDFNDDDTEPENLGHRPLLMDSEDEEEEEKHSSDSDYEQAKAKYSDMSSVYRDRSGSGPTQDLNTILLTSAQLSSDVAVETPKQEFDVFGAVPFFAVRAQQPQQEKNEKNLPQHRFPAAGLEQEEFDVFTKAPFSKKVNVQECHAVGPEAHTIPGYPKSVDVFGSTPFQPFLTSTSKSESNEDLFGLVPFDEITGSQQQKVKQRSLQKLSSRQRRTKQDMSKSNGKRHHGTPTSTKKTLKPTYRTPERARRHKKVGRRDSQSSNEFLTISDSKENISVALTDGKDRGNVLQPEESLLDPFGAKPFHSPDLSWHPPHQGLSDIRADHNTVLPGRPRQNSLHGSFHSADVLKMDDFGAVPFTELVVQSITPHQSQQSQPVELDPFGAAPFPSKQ

Columns and labels:
Test in all cases: log2 fold change, soluble protein after heating vs DMSO (PISA); higher = thermal stabilisation; K562 lysate, 10 uM; active = over 0.2 and 3.5 SD of the protein, either way, in both replicates (recomputed)
lapatinib = compound: CS(=O)(=O)CCNCc1ccc(-c2ccc3ncnc(Nc4ccc(OCc5cccc(F)c5)c(Cl)c4)c3c2)o1 [lapatinib]
Outline: (§1)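 Following dounce homogenisation of K562 pellets in PBS pH 7.4 with 1 mM MgCl2, crude extract at 1 mg/mL protein was incubated for 30 min with 10 μM compound. Aliquots were then heated for 3 min over 48°C-58°C and pooled, NP-40 was added to 0.5% at 4°C, and soluble protein was recovered as the supernatant at 21,000xg for 90 min. Channel-sum-equalised TMTpro 16plex LC-MS/MS quantified this protein. Each value, from duplicates, is a log-two fold change in thermal stability relative to solvent controls.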

pictilisib = compound: CS(=O)(=O)N1CCN(Cc2cc3nc(-c4cccc5[nH]ncc45)nc(N4CCOCC4)c3s2)CC1 [pictilisib]
Outline: as §1

crizotinib = compound: C[C@@H](Oc1cc(-c2cnn(C3CCNCC3)c2)cnc1N)c1c(Cl)ccc(F)c1Cl [crizotinib]
Outline: as §1

[1] = compound: C[C@H](C1=CC=C(C=C1)C(=O)NC2=C3C=CNC3=NC=C2)N
Outline: as §1

duvelisib = compound: C[C@H](Nc1ncnc2nc[nH]c12)c1cc2cccc(Cl)c2c(=O)n1-c1ccccc1 [duvelisib]
Outline: as §1

gandotinib = compound: Cc1cc(Nc2cc(CN3CCOCC3)c3nc(C)c(Cc4ccc(Cl)cc4F)n3n2)n[nH]1 [gandotinib]
Outline: as §1

tozasertib = compound: Cc1cc(Nc2cc(N3CCN(C)CC3)nc(Sc3ccc(NC(=O)C4CC4)cc3)n2)n[nH]1 [tozasertib]
Outline: as §1

doramapimod = compound: Cc1ccc(-n2nc(C(C)(C)C)cc2NC(=O)Nc2ccc(OCCN3CCOCC3)c3ccccc23)cc1 [doramapimod]
Outline: as §1

bafetinib = compound: Cc1ccc(NC(=O)c2ccc(CN3CC[C@H](N(C)C)C3)c(C(F)(F)F)c2)cc1Nc1nccc(-c2cncnc2)n1 [bafetinib]
Outline: as §1

[2] = compound: Cc1cccc(CC(=O)N2CCc3c2ccc(-c2cn(C)c4ncnc(N)c24)c3F)n1
Outline: as §1

nilotinib = compound: Cc1cn(-c2cc(NC(=O)c3ccc(C)c(Nc4nccc(-c5cccnc5)n4)c3)cc(C(F)(F)F)c2)cn1 [nilotinib]
Outline: as §1

[3] = compound: Cc1nc(Nc2n[nH]c3c2CN(C(=O)N[C@H](CN(C)C)c2ccccc2)C3(C)C)c2sccc2n1
Outline: as §1

dasatinib = compound: Cc1nc(Nc2ncc(C(=O)Nc3c(C)cccc3Cl)s2)cc(N2CCN(CCO)CC2)n1 [dasatinib]
Outline: as §1

[4] = compound: Cc1ncc(-c2ccnc(Nc3ccc(S(C)(=O)=O)cc3)n2)n1C(C)C
Outline: as §1

[5] = compound: Cn1cc(-c2ccc3c(c2)CCN3C(=O)Cc2cccc(C(F)(F)F)c2)c2c(N)ncnc21
Outline: as §1

quisinostat = compound: Cn1cc(CNCC2CCN(c3ncc(C(=O)NO)cn3)CC2)c2ccccc21 [quisinostat]
Outline: as §1

tipifarnib = compound: Cn1cncc1[C@@](N)(c1ccc(Cl)cc1)c1ccc2c(c1)c(-c1cccc(Cl)c1)cc(=O)n2C [tipifarnib]
Outline: as §1

[6] = compound: NC(=O)Nc1cc(-c2cccc(F)c2)sc1C(=O)N[C@H]1CCCNC1
Outline: as §1

[7] = compound: NC(=O)c1cnc(N[C@@H]2CCCC[C@@H]2N)nc1Nc1cccc(-n2nccn2)c1
Outline: as §1

[8] = compound: NC1(c2ccc(-c3nc4ccn5c(=O)[nH]nc5c4cc3-c3ccccc3)cc2)CCC1
Outline: as §1

Measured: log2 fold change

BCAP31 isoform 2 (UniProt P51572)
inactive: lapatinib -0.005 | pictilisib 0.014 | crizotinib 0.099 | [1] -0.059 | duvelisib 0.007 | gandotinib 0.03 | tozasertib -0.003 | doramapimod -0.059 | bafetinib 0.005 | [2] -0.007 | nilotinib 0.004 | [3] 0.001 | dasatinib 0.016 | [4] 0.007 | [5] -0.013 | quisinostat 0.096 | tipifarnib 0.008 | [6] -0.023 | [7] -0.003 | [8] 0.014

BPNT1 (UniProt O95861)
inactive: lapatinib 0.003 | pictilisib -0.012 | crizotinib 0.004 | [1] -0.006 | duvelisib 0.004 | gandotinib 0.001 | tozasertib 0.017 | doramapimod 0.029 | bafetinib 0.049 | [2] -0.037 | nilotinib 0.012 | [3] -0.016 | dasatinib -0.009 | [4] 0.01 | [5] -0.023 | quisinostat 0.044 | tipifarnib 0.005 | [6] -0.065 | [7] 0.006 | [8] 0.026

BANP (UniProt Q8N9N5)
inactive: lapatinib -0.115 | pictilisib 0.008 | crizotinib -0.009 | [1] 0.036 | duvelisib -0.027 | gandotinib -0.097 | tozasertib -0.019 | doramapimod 0.02 | bafetinib -0.151 | [2] 0.099 | nilotinib 0.077 | [3] -0.147 | dasatinib -0.014 | [4] 0.013 | [5] -0.065 | quisinostat -0.027 | tipifarnib 0.064 | [6] 0.057 | [7] 0.052 | [8] 0.014

Looked up one by one from the list above, 2 records:
BPNT1 (UniProt O95861)
inactive: lapatinib 0.003 | pictilisib -0.012 | crizotinib 0.004 | [1] -0.006 | duvelisib 0.004 | gandotinib 0.001 | tozasertib 0.017 | doramapimod 0.029 | bafetinib 0.049 | [2] -0.037 | nilotinib 0.012 | [3] -0.016 | dasatinib -0.009 | [4] 0.01 | [5] -0.023 | quisinostat 0.044 | tipifarnib 0.005 | [6] -0.065 | [7] 0.006 | [8] 0.026

BCAP31 isoform 2 (UniProt P51572)
inactive: lapatinib -0.005 | pictilisib 0.014 | crizotinib 0.099 | [1] -0.059 | duvelisib 0.007 | gandotinib 0.03 | tozasertib -0.003 | doramapimod -0.059 | bafetinib 0.005 | [2] -0.007 | nilotinib 0.004 | [3] 0.001 | dasatinib 0.016 | [4] 0.007 | [5] -0.013 | quisinostat 0.096 | tipifarnib 0.008 | [6] -0.023 | [7] -0.003 | [8] 0.014

(next part)

BCL7B (UniProt Q9BQE9)
inactive: lapatinib -0.061 | pictilisib 0.149 | crizotinib 0.065 | [1] 0.279 | duvelisib 0.028 | gandotinib -0.209 | tozasertib -0.159 | doramapimod -0.065 | bafetinib -0.371 | [2] -0.215 | nilotinib 0.074 | [3] 0.008 | dasatinib -0.213 | [4] -0.036 | [5] 0 | quisinostat 0.112 | tipifarnib 0.142 | [6] -0.119 | [7] 0.105 | [8] 0.038

BAG4 (UniProt O95429)
inactive: lapatinib 0.013 | pictilisib -0.174 | crizotinib 0.06 | [1] -0.056 | duvelisib 0.043 | gandotinib 0.102 | tozasertib 0.011 | doramapimod -0.043 | bafetinib -0.002 | [2] 0.004 | nilotinib -0.154 | [3] -0.039 | dasatinib 0.027 | [4] 0.014 | [5] 0.015 | quisinostat 0.019 | tipifarnib -0.011 | [6] 0.01 | [7] 0.018 | [8] 0.038

BCAT2 (UniProt O15382)
inactive: lapatinib -0.009 | pictilisib -0.021 | crizotinib 0.028 | [1] -0.034 | duvelisib 0.019 | gandotinib 0.04 | tozasertib -0.031 | doramapimod -0.016 | bafetinib 0.062 | [2] -0.011 | nilotinib 0.004 | [3] 0.033 | dasatinib 0.013 | [4] 0.009 | [5] -0.013 | quisinostat 0.009 | tipifarnib -0.012 | [6] 0.013 | [7] -0.015 | [8] 0.014

BLVRB (UniProt P30043)
inactive: lapatinib 0.004 | pictilisib 0.01 | crizotinib -0.035 | [1] -0.024 | duvelisib 0.042 | gandotinib -0.045 | tozasertib 0.03 | doramapimod 0.023 | bafetinib -0.001 | [2] 0.028 | nilotinib 0.032 | [3] -0.002 | dasatinib -0.034 | [4] 0.002 | [5] 0 | quisinostat -0.022 | tipifarnib -0.006 | [6] 0.025 | [7] 0.017 | [8] -0.047

BCAT1 (UniProt P54687)
inactive: lapatinib -0.011 | pictilisib -0.005 | crizotinib 0.002 | [1] -0.077 | duvelisib 0.029 | gandotinib 0.052 | tozasertib -0.015 | doramapimod 0.004 | bafetinib 0.088 | [2] 0.007 | nilotinib 0.029 | [3] -0.013 | dasatinib 0.005 | [4] -0.008 | [5] -0.033 | quisinostat -0.001 | tipifarnib 0.003 | [6] -0.005 | [7] -0.015 | [8] 0.003

BCL2L13 (UniProt Q9BXK5)
inactive: lapatinib 0.002 | pictilisib 0 | crizotinib 0.004 | [1] -0.04 | duvelisib 0.014 | gandotinib 0.003 | tozasertib -0.02 | doramapimod -0.006 | bafetinib -0.005 | [2] 0.06 | nilotinib -0.026 | [3] 0.03 | dasatinib 0.016 | [4] 0.018 | [5] -0.002 | quisinostat -0.007 | tipifarnib 0.001 | [6] -0.024 | [7] 0.012 | [8] -0.022

BPTF (UniProt Q12830)
inactive: lapatinib 0.017 | pictilisib 0.027 | crizotinib -0.028 | [1] -0.049 | duvelisib -0.004 | gandotinib -0.015 | tozasertib 0.064 | doramapimod -0.003 | bafetinib -0.004 | [2] 0.064 | nilotinib -0.039 | [3] -0.011 | dasatinib -0.018 | [4] -0.059 | [5] 0.004 | quisinostat -0.018 | tipifarnib -0.012 | [6] 0.03 | [7] 0.016 | [8] -0.002

BTBD6 (UniProt Q96KE9)
inactive: lapatinib -0.149 | pictilisib 0.025 | crizotinib -0.342 | [1] -0.487 | duvelisib 0.1 | gandotinib 0.482 | tozasertib 0 | doramapimod -0.001 | bafetinib -0.08 | [2] 0.529 | nilotinib 0.073 | [3] -0.037 | dasatinib 0.054 | [4] 0.049 | [5] -0.07 | quisinostat -0.483 | tipifarnib -0.108 | [6] 0.09 | [7] 0.057 | [8] -0.233

B4GALT3 (UniProt O60512)
inactive: lapatinib 0.197 | pictilisib -0.134 | crizotinib 0.036 | [1] 0.071 | duvelisib -0.012 | gandotinib -0.11 | tozasertib 0.081 | doramapimod 0.008 | bafetinib -0.053 | [2] -0.064 | nilotinib 0.055 | [3] 0.009 | dasatinib 0.029 | [4] 0.009 | [5] 0.043 | quisinostat 0.099 | tipifarnib -0.082 | [6] -0.044 | [7] 0.047 | [8] -0.003

BABAM1 (UniProt Q9NWV8)
inactive: lapatinib -0.009 | pictilisib -0.005 | crizotinib 0.001 | [1] -0.08 | duvelisib -0.035 | gandotinib 0.026 | tozasertib -0.003 | doramapimod 0.005 | bafetinib 0.083 | [2] 0.028 | nilotinib 0.023 | [3] -0.034 | dasatinib 0.004 | [4] 0.005 | [5] 0.035 | quisinostat 0.001 | tipifarnib 0.044 | [6] 0.006 | [7] 0.003 | [8] 0.024

BCL7A isoform 2 (UniProt Q4VC05)
inactive: lapatinib -0.012 | pictilisib -0.031 | crizotinib 0.074 | [1] 0.08 | duvelisib -0.032 | gandotinib -0.063 | tozasertib 0.015 | doramapimod 0.007 | bafetinib 0.044 | [2] -0.104 | nilotinib -0.032 | [3] 0.005 | dasatinib 0.061 | [4] -0.05 | [5] 0.079 | quisinostat 0.04 | tipifarnib 0.007 | [6] -0.018 | [7] 0.04 | [8] 0.037

BMP2K (UniProt Q9NSY1)
inactive: lapatinib -0.106 | pictilisib 0.374 | crizotinib 0.595 | [1] 0.762 | duvelisib -0.012 | gandotinib 0.845 | tozasertib 0.391 | doramapimod -0.026 | bafetinib -0.041 | [2] -0.076 | nilotinib -0.015 | [3] 0.597 | dasatinib 0.084 | [4] 0.538 | [5] -0.026 | quisinostat -0.112 | tipifarnib -0.025 | [6] 0.748 | [7] 0.109 | [8] -0.011

BIRC6 (UniProt Q9NR09)
inactive: lapatinib -0.028 | pictilisib -0.025 | crizotinib -0.024 | [1] -0.033 | duvelisib 0.021 | gandotinib -0.02 | tozasertib -0.009 | doramapimod 0.006 | bafetinib -0.028 | [2] 0.037 | nilotinib -0.004 | [3] 0.005 | dasatinib -0.002 | [4] 0.012 | [5] 0.01 | quisinostat 0.009 | tipifarnib 0.012 | [6] 0.014 | [7] 0 | [8] 0.018
